{"source": "patent US7078169B2", "about": "(priority 1999, dated 2006)", "tested_on": "HES1 reporter gene", "type": "cell-based, S. cerevisiae", "details": "ABY140 (pdr5::KanMX yor1::KanMX) vs ABY11 wild-type", "method": "To further test the viability of this indicator gene in a high-throughput screen, the regulation of the HES1 reporter was tested in two different strain backgrounds ABY11 (MATa leu2Δ1 ura3-52) is a wild-type strain.\nThe ABY140 [HES1] strain was used to screen approximately 16,800 chemicals from a combinatorial chemistry library. […] Twenty-four of these chemical were further tested in a secondary screen for the ability to induce four additional indicator (also referred to as reporter) genes whose expression are also coordinately regulated with genes encoding ergosterol biosynthetic enzymes.", "note": "For at least one compound, name, drawing or mass did not settle the structure.", "data": [{"smiles": "COC(=O)C1=C(C)NC(C)=C(C(=O)OC)C1c1ccccc1[N+](=O)[O-]", "note": "[Nifedipine]", "values": [{"measurement": "sensitivity of HES1 reporter gene induction in ABY140 compared to ABY11", "result": "not"}]}]}
